Experimental data from PMC12569377, “P-Rex1 limits the agonist-induced internalization of GPCRs independently of its Rac-GEF activity” (Cell Reports, 2025).
These are yes or no findings as the source states them, for the method shown. In cells and extracts the contact can be indirect. Some binding calls cover weakened binding; strength is not graded here.

Chains of the proteins cited; added tags and fusions are not shown. Lines headed by an entry give the natural chain unless they say otherwise; changes in a name come on top. Residues count along the entry.
UniProt P25098: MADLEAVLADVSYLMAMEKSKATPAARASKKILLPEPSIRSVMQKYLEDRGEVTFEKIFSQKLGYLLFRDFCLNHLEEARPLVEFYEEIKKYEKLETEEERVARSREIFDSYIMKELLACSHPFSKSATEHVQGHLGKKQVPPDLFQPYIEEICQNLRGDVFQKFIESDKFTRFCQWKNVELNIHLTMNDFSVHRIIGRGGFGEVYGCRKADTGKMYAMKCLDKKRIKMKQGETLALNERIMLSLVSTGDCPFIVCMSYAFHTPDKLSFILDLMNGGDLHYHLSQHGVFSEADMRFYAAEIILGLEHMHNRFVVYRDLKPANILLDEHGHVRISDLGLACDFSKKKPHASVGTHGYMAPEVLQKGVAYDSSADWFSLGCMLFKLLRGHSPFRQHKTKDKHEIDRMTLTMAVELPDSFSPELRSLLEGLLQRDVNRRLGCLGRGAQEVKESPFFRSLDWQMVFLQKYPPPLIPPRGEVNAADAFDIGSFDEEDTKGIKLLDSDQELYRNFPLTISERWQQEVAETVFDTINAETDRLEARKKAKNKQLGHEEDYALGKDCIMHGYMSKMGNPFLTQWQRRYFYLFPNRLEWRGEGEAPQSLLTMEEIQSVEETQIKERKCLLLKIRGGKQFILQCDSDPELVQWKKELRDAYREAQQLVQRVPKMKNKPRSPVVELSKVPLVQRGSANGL
flag-Grk2-iCAT (aa 185–543): residues 185-543 of P25098
UniProt Q8TCU6: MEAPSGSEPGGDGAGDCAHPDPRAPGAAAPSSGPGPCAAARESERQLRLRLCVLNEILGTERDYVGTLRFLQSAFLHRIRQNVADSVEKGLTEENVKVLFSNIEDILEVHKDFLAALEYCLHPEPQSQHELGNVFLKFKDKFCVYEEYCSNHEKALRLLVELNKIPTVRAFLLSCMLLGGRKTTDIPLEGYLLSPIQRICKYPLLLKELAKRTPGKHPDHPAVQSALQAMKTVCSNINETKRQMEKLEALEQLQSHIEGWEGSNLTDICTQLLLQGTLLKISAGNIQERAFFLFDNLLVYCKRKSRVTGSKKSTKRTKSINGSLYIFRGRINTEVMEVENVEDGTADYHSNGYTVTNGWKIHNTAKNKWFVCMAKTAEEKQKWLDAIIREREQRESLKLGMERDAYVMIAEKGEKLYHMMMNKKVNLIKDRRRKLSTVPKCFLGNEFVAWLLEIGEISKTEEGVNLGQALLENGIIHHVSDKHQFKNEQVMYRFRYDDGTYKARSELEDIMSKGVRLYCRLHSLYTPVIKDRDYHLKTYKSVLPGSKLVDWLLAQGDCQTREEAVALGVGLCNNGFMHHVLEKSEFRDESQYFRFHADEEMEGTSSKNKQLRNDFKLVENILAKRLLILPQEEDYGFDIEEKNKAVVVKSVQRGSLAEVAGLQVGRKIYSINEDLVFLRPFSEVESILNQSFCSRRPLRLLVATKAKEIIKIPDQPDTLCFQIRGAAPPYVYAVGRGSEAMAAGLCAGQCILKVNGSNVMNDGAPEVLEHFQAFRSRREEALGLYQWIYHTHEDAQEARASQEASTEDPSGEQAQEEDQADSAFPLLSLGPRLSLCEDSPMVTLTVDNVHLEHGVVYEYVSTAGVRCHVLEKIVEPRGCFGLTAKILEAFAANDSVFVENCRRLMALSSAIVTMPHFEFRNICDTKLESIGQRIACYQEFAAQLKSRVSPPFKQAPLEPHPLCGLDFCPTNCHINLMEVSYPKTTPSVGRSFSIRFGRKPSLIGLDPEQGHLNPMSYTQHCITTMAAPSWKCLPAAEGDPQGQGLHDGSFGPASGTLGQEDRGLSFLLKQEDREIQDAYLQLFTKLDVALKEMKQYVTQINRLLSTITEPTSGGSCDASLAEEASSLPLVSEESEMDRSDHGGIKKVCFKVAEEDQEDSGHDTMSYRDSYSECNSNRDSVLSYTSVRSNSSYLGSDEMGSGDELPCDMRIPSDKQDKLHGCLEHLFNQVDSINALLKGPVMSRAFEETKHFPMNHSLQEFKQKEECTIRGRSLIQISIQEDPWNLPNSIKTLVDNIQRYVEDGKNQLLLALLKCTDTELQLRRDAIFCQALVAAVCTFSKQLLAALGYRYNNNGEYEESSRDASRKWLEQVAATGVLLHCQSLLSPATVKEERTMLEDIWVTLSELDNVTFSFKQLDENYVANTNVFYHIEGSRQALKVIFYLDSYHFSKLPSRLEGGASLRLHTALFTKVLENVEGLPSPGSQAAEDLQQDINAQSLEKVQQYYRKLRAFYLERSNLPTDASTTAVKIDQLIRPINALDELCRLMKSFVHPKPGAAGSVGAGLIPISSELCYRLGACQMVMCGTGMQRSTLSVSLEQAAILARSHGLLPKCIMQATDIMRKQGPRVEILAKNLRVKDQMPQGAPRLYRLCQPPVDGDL

How the values were obtained:
[1] = target: flag-Grk2-iCAT (aa 185–543) (UniProt P25098); assay: co-IP; HEK293-S1PR1 cells expressing myc-P-Rex1 and/or flag-Grk2 or flag-Grk2-iCAT, serum starved 14 h; total lysate (50 mM HEPES pH 7.2, 150 mM NaCl, 1% NP-40) immunoprecipitated with magnetic anti-flag agarose, 60 min at 4°C, 4 washes; western blot
flag-Grk2 (full-length) = flag-Grk2 (full-length) (UniProt P25098); assay: as above

- binding [1]: no binding
- binding (flag-Grk2 (full-length)): binds
Substance: myc-P-Rex1 (from UniProt Q8TCU6 1-1659)
